This is an account of results in publication PMC10988300.

The chains behind the UniProt entries cited, without tags or fusion partners.
UniProt P09429: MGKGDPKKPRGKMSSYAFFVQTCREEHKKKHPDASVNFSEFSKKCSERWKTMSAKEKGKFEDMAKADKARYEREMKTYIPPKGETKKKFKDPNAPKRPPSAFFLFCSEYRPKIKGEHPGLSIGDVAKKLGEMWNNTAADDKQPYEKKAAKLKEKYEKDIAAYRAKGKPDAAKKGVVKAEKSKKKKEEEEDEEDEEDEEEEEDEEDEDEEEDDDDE

Test [1] addresses Flag-HMGB1 (UniProt P09429). Nature of the test: co-IP; HEK-293T cells overexpressing USP15 and HMGB1; Co-IP RIPA buffer, Protein A/G PLUS-Agarose beads, 4 °C overnight, western blot.
Test [2] deals with HMGB1, endogenous in PTC cells (human (endogenous in B-CPAP and KTC-1)) (UniProt P09429). Nature of the test: co-IP; endogenous proteins of B-CPAP cells and KTC-1 cells; Co-IP RIPA buffer, Protein A/G PLUS-Agarose beads, 4 °C overnight, western blot. A general note: In western blotting, separated proteins are transferred to a membrane and probed.
Test [3] concerns the target Flag-HMGB1 (UniProt P09429). Briefly: co-IP; deubiquitination assay: HEK-293T cells co-transfected with HA-USP15 or HA-USP15 C298A, Flag-HMGB1 and His-Ub for 48 h; immunoprecipitated with an anti-Flag antibody, western blot.

These are yes or no findings as the source states them, for the method shown. Binding seen in cells or lysates may run through a third protein. Some binding calls cover weakened binding; strength is not graded here. For part of these data: Where a sequence is shown, tags or fusion partners need not be part of it.

B1: HA-USP15 (enzyme, UniProt Q9Y4E8 1-981)
chain: MAEGGAADLDTQRSDIATLLKTSLRKGDTWYLVDSRWFKQWKKYVGFDSWDKYQMGDQNVYPGPIDNSGLLKDGDAQSLKEHLIDELDYILLPTEGWNKLVSWYTLMEGQEPIARKVVEQGMFVKHCKVEVYLTELKLCENGNMNNVVTRRFSKADTIDTIEKEIRKIFSIPDEKETRLWNKYMSNTFEPLNKPDSTIQDAGLYQGQVLVIEQKNEDGTWPRGPSTPKSPGASNFSTLPKISPSSLSNNYNNMNNRNVKNSNYCLPSYTAYKNYDYSEPGRNNEQPGLCGLSNLGNTCFMNSAIQCLSNTPPLTEYFLNDKYQEELNFDNPLGMRGEIAKSYAELIKQMWSGKFSYVTPRAFKTQVGRFAPQFSGYQQQDCQELLAFLLDGLHEDLNRIRKKPYIQLKDADGRPDKVVAEEAWENHLKRNDSIIVDIFHGLFKSTLVCPECAKISVTFDPFCYLTLPLPMKKERTLEVYLVRMDPLTKPMQYKVVVPKIGNILDLCTALSALSGIPADKMIVTDIYNHRFHRIFAMDENLSSIMERDDIYVFEININRTEDTEHVIIPVCLREKFRHSSYTHHTGSSLFGQPFLMAVPRNNTEDKLYNLLLLRMCRYVKISTETEETEGSLHCCKDQNINGNGPNGIHEEGSPSEMETDEPDDESSQDQELPSENENSQSEDSVGGDNDSENGLCTEDTCKGQLTGHKKRLFTFQFNNLGNTDINYIKDDTRHIRFDDRQLRLDERSFLALDWDPDLKKRYFDENAAEDFEKHESVEYKPPKKPFVKLKDCIELFTTKEKLGAEDPWYCPNCKEHQQATKKLDLWSLPPVLVVHLKRFSYSRYMRDKLDTLVDFPINDLDMSEFLINPNAGPCRYNLIAVSNHYGGMGGGHYTAFAKNKDDGKWYYFDDSSVSTASEDQIVSKAAYVLFYQRQDTFSGTGFFPLDRETKGASAATGIPLESDEDSNDNDNDIENENCMHTN
In the case of B1, the binding result with Flag-HMGB1 [1] is “binds”.

B2: USP15, endogenous in PTC cells (enzyme, UniProt Q9Y4E8 1-981)
chain: MAEGGAADLDTQRSDIATLLKTSLRKGDTWYLVDSRWFKQWKKYVGFDSWDKYQMGDQNVYPGPIDNSGLLKDGDAQSLKEHLIDELDYILLPTEGWNKLVSWYTLMEGQEPIARKVVEQGMFVKHCKVEVYLTELKLCENGNMNNVVTRRFSKADTIDTIEKEIRKIFSIPDEKETRLWNKYMSNTFEPLNKPDSTIQDAGLYQGQVLVIEQKNEDGTWPRGPSTPKSPGASNFSTLPKISPSSLSNNYNNMNNRNVKNSNYCLPSYTAYKNYDYSEPGRNNEQPGLCGLSNLGNTCFMNSAIQCLSNTPPLTEYFLNDKYQEELNFDNPLGMRGEIAKSYAELIKQMWSGKFSYVTPRAFKTQVGRFAPQFSGYQQQDCQELLAFLLDGLHEDLNRIRKKPYIQLKDADGRPDKVVAEEAWENHLKRNDSIIVDIFHGLFKSTLVCPECAKISVTFDPFCYLTLPLPMKKERTLEVYLVRMDPLTKPMQYKVVVPKIGNILDLCTALSALSGIPADKMIVTDIYNHRFHRIFAMDENLSSIMERDDIYVFEININRTEDTEHVIIPVCLREKFRHSSYTHHTGSSLFGQPFLMAVPRNNTEDKLYNLLLLRMCRYVKISTETEETEGSLHCCKDQNINGNGPNGIHEEGSPSEMETDEPDDESSQDQELPSENENSQSEDSVGGDNDSENGLCTEDTCKGQLTGHKKRLFTFQFNNLGNTDINYIKDDTRHIRFDDRQLRLDERSFLALDWDPDLKKRYFDENAAEDFEKHESVEYKPPKKPFVKLKDCIELFTTKEKLGAEDPWYCPNCKEHQQATKKLDLWSLPPVLVVHLKRFSYSRYMRDKLDTLVDFPINDLDMSEFLINPNAGPCRYNLIAVSNHYGGMGGGHYTAFAKNKDDGKWYYFDDSSVSTASEDQIVSKAAYVLFYQRQDTFSGTGFFPLDRETKGASAATGIPLESDEDSNDNDNDIENENCMHTN
Consider B2, for which, in test [2], the binding entry is reported as “binds”.

B3: HA-USP15 C298A (enzyme, UniProt Q9Y4E8 1-981)
chain: MAEGGAADLDTQRSDIATLLKTSLRKGDTWYLVDSRWFKQWKKYVGFDSWDKYQMGDQNVYPGPIDNSGLLKDGDAQSLKEHLIDELDYILLPTEGWNKLVSWYTLMEGQEPIARKVVEQGMFVKHCKVEVYLTELKLCENGNMNNVVTRRFSKADTIDTIEKEIRKIFSIPDEKETRLWNKYMSNTFEPLNKPDSTIQDAGLYQGQVLVIEQKNEDGTWPRGPSTPKSPGASNFSTLPKISPSSLSNNYNNMNNRNVKNSNYCLPSYTAYKNYDYSEPGRNNEQPGLCGLSNLGNTAFMNSAIQCLSNTPPLTEYFLNDKYQEELNFDNPLGMRGEIAKSYAELIKQMWSGKFSYVTPRAFKTQVGRFAPQFSGYQQQDCQELLAFLLDGLHEDLNRIRKKPYIQLKDADGRPDKVVAEEAWENHLKRNDSIIVDIFHGLFKSTLVCPECAKISVTFDPFCYLTLPLPMKKERTLEVYLVRMDPLTKPMQYKVVVPKIGNILDLCTALSALSGIPADKMIVTDIYNHRFHRIFAMDENLSSIMERDDIYVFEININRTEDTEHVIIPVCLREKFRHSSYTHHTGSSLFGQPFLMAVPRNNTEDKLYNLLLLRMCRYVKISTETEETEGSLHCCKDQNINGNGPNGIHEEGSPSEMETDEPDDESSQDQELPSENENSQSEDSVGGDNDSENGLCTEDTCKGQLTGHKKRLFTFQFNNLGNTDINYIKDDTRHIRFDDRQLRLDERSFLALDWDPDLKKRYFDENAAEDFEKHESVEYKPPKKPFVKLKDCIELFTTKEKLGAEDPWYCPNCKEHQQATKKLDLWSLPPVLVVHLKRFSYSRYMRDKLDTLVDFPINDLDMSEFLINPNAGPCRYNLIAVSNHYGGMGGGHYTAFAKNKDDGKWYYFDDSSVSTASEDQIVSKAAYVLFYQRQDTFSGTGFFPLDRETKGASAATGIPLESDEDSNDNDNDIENENCMHTN
Turning to B3, the binding entry with Flag-HMGB1 [3] was “binds”.
